No constants are given. Whether binding was seen depends on the method and setting. Some entries that bind do so weakly or less than the wild type. For some of these results: Where a sequence is shown, tags or fusion partners need not be part of it.
Experiments:
[1] = target: T1, GST-tagged DIX domain of mouse DVL1 (residues 1-106) with Y17D (mouse) (UniProt P51141); test: pull-down; GST-DIX (or GST) 0.5 μg and His-tagged PIP5K1 0.5 μg in 200 μl of 10 mM HEPES (pH 7.4), 150 mM NaCl, 0.2% Triton, 0.01% SDS, 3 mM dithiothreitol, 10% glycerol; 4 °C overnight; glutathione beads; western blotting; both purified
T1 sequence: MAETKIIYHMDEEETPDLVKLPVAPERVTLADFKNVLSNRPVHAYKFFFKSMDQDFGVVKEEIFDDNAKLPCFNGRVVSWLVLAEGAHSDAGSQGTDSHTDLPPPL

Sequences of proteins named here, by UniProt entry; tags and fusion partners are left off. A change or cut given only in a name is not applied to a line headed by its entry. A line that says so, or that is headed by a name, gives the form on record, which may keep a tag or linker.
zebrafish PIP5K1A kinase catalytic domain, R197A mutant (Q503I3, form named): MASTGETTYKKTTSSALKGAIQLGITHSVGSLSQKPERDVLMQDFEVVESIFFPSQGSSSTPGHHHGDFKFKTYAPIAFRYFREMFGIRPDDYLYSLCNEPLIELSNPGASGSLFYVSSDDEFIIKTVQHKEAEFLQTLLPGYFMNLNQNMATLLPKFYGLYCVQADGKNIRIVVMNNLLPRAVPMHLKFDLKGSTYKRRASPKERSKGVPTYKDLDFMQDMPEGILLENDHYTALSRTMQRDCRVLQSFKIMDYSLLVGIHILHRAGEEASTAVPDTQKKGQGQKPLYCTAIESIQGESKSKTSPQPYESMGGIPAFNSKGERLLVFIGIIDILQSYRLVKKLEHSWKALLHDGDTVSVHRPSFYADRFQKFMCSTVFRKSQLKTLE
zebrafish PIP5K1A kinase catalytic domain, K80A mutant (Q503I3, form named): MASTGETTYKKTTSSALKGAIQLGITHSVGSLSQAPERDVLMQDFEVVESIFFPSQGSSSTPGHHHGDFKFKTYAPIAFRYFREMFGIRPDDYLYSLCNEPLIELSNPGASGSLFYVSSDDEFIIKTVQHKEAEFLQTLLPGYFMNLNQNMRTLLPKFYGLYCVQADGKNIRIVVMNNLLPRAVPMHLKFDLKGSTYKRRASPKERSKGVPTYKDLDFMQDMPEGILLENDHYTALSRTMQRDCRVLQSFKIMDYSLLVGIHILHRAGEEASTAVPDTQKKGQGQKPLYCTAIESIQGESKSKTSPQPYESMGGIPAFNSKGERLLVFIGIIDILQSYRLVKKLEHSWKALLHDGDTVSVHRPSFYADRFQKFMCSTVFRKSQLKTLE
zebrafish PIP5K1A kinase catalytic domain, I133A mutant (Q503I3, form named): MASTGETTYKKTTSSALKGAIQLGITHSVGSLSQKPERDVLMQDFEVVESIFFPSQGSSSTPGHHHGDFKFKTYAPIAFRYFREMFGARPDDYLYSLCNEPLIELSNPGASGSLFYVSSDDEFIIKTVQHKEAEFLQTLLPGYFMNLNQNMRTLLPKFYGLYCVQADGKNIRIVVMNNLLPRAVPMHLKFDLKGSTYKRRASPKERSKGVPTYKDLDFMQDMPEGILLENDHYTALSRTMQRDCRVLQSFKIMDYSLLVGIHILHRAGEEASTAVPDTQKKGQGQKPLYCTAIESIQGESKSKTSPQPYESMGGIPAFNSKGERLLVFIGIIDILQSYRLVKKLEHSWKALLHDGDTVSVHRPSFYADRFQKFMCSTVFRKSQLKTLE
zebrafish PIP5K1A kinase catalytic domain, triple D84R/L86A/V291A (DLV) mutant (Q503I3, form named): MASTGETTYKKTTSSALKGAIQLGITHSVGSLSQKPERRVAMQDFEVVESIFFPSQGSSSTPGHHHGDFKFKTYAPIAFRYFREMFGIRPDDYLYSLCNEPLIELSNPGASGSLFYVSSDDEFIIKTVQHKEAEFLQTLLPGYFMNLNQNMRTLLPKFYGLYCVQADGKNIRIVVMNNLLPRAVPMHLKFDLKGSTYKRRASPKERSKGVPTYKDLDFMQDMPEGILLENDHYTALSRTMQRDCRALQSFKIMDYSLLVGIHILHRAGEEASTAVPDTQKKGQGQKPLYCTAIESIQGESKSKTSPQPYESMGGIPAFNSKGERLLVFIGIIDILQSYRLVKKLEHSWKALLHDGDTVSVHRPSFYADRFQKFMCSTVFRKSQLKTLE

[2] = target: zebrafish PIP5K1A kinase catalytic domain, triple D84R/L86A/V291A (DLV) mutant (zebrafish) (UniProt Q503I3); test: SEC-MALS; Superdex S-200 10/30 HR; 10 mM HEPES (pH 7.3), 300 mM NaCl, 5% glycerol, 0.01% TX-100; 0.5 ml/min; both purified

Substance | binding [1] | binding [2]
zebrafish PIP5K1A kinase catalytic domain, R197A mutant (from UniProt Q503I3 49-431) (domain or fragment) | binds weakly | –
zebrafish PIP5K1A kinase catalytic domain, K80A mutant (from UniProt Q503I3 49-431) (domain or fragment) | binds weakly | –
zebrafish PIP5K1A kinase catalytic domain, I133A mutant (from UniProt Q503I3 49-431) (domain or fragment) | binds weakly | –
zebrafish PIP5K1A kinase catalytic domain, triple D84R/L86A/V291A (DLV) mutant (from UniProt Q503I3 49-431) (domain or fragment) | – | no binding

Source: PMC4570271, “Resolution of structure of PIP5K1A reveals molecular mechanism for its regulation by dimerization and dishevelled” (Nature Communications, 2015)
